In patent US20080109040A1, “METHOD OF TREATING ARRHYTHMIAS” (priority 2002, published 2008):

Test system: guinea pig ventricular myocytes
Test: Action potential duration, EADs and triggered activity in guinea pig ventricular myocytes
Conditions: with and without ATX-II

Cc1cccc(CCN2CCC(C(=O)c3ccc(NS(C)(=O)=O)cc3)CC2)n1 [E-4031, reference compound]
Induction of EADs: induced EADs in the presence, but not in the absence, of ATX-II
